The source of these data is article PMC3514318.

Protein sequences, listed by entry. Tags and fused reporters are not part of them. Lines headed by an entry give the natural chain unless they say otherwise; changes in a name come on top.
UniProt Q9NB71: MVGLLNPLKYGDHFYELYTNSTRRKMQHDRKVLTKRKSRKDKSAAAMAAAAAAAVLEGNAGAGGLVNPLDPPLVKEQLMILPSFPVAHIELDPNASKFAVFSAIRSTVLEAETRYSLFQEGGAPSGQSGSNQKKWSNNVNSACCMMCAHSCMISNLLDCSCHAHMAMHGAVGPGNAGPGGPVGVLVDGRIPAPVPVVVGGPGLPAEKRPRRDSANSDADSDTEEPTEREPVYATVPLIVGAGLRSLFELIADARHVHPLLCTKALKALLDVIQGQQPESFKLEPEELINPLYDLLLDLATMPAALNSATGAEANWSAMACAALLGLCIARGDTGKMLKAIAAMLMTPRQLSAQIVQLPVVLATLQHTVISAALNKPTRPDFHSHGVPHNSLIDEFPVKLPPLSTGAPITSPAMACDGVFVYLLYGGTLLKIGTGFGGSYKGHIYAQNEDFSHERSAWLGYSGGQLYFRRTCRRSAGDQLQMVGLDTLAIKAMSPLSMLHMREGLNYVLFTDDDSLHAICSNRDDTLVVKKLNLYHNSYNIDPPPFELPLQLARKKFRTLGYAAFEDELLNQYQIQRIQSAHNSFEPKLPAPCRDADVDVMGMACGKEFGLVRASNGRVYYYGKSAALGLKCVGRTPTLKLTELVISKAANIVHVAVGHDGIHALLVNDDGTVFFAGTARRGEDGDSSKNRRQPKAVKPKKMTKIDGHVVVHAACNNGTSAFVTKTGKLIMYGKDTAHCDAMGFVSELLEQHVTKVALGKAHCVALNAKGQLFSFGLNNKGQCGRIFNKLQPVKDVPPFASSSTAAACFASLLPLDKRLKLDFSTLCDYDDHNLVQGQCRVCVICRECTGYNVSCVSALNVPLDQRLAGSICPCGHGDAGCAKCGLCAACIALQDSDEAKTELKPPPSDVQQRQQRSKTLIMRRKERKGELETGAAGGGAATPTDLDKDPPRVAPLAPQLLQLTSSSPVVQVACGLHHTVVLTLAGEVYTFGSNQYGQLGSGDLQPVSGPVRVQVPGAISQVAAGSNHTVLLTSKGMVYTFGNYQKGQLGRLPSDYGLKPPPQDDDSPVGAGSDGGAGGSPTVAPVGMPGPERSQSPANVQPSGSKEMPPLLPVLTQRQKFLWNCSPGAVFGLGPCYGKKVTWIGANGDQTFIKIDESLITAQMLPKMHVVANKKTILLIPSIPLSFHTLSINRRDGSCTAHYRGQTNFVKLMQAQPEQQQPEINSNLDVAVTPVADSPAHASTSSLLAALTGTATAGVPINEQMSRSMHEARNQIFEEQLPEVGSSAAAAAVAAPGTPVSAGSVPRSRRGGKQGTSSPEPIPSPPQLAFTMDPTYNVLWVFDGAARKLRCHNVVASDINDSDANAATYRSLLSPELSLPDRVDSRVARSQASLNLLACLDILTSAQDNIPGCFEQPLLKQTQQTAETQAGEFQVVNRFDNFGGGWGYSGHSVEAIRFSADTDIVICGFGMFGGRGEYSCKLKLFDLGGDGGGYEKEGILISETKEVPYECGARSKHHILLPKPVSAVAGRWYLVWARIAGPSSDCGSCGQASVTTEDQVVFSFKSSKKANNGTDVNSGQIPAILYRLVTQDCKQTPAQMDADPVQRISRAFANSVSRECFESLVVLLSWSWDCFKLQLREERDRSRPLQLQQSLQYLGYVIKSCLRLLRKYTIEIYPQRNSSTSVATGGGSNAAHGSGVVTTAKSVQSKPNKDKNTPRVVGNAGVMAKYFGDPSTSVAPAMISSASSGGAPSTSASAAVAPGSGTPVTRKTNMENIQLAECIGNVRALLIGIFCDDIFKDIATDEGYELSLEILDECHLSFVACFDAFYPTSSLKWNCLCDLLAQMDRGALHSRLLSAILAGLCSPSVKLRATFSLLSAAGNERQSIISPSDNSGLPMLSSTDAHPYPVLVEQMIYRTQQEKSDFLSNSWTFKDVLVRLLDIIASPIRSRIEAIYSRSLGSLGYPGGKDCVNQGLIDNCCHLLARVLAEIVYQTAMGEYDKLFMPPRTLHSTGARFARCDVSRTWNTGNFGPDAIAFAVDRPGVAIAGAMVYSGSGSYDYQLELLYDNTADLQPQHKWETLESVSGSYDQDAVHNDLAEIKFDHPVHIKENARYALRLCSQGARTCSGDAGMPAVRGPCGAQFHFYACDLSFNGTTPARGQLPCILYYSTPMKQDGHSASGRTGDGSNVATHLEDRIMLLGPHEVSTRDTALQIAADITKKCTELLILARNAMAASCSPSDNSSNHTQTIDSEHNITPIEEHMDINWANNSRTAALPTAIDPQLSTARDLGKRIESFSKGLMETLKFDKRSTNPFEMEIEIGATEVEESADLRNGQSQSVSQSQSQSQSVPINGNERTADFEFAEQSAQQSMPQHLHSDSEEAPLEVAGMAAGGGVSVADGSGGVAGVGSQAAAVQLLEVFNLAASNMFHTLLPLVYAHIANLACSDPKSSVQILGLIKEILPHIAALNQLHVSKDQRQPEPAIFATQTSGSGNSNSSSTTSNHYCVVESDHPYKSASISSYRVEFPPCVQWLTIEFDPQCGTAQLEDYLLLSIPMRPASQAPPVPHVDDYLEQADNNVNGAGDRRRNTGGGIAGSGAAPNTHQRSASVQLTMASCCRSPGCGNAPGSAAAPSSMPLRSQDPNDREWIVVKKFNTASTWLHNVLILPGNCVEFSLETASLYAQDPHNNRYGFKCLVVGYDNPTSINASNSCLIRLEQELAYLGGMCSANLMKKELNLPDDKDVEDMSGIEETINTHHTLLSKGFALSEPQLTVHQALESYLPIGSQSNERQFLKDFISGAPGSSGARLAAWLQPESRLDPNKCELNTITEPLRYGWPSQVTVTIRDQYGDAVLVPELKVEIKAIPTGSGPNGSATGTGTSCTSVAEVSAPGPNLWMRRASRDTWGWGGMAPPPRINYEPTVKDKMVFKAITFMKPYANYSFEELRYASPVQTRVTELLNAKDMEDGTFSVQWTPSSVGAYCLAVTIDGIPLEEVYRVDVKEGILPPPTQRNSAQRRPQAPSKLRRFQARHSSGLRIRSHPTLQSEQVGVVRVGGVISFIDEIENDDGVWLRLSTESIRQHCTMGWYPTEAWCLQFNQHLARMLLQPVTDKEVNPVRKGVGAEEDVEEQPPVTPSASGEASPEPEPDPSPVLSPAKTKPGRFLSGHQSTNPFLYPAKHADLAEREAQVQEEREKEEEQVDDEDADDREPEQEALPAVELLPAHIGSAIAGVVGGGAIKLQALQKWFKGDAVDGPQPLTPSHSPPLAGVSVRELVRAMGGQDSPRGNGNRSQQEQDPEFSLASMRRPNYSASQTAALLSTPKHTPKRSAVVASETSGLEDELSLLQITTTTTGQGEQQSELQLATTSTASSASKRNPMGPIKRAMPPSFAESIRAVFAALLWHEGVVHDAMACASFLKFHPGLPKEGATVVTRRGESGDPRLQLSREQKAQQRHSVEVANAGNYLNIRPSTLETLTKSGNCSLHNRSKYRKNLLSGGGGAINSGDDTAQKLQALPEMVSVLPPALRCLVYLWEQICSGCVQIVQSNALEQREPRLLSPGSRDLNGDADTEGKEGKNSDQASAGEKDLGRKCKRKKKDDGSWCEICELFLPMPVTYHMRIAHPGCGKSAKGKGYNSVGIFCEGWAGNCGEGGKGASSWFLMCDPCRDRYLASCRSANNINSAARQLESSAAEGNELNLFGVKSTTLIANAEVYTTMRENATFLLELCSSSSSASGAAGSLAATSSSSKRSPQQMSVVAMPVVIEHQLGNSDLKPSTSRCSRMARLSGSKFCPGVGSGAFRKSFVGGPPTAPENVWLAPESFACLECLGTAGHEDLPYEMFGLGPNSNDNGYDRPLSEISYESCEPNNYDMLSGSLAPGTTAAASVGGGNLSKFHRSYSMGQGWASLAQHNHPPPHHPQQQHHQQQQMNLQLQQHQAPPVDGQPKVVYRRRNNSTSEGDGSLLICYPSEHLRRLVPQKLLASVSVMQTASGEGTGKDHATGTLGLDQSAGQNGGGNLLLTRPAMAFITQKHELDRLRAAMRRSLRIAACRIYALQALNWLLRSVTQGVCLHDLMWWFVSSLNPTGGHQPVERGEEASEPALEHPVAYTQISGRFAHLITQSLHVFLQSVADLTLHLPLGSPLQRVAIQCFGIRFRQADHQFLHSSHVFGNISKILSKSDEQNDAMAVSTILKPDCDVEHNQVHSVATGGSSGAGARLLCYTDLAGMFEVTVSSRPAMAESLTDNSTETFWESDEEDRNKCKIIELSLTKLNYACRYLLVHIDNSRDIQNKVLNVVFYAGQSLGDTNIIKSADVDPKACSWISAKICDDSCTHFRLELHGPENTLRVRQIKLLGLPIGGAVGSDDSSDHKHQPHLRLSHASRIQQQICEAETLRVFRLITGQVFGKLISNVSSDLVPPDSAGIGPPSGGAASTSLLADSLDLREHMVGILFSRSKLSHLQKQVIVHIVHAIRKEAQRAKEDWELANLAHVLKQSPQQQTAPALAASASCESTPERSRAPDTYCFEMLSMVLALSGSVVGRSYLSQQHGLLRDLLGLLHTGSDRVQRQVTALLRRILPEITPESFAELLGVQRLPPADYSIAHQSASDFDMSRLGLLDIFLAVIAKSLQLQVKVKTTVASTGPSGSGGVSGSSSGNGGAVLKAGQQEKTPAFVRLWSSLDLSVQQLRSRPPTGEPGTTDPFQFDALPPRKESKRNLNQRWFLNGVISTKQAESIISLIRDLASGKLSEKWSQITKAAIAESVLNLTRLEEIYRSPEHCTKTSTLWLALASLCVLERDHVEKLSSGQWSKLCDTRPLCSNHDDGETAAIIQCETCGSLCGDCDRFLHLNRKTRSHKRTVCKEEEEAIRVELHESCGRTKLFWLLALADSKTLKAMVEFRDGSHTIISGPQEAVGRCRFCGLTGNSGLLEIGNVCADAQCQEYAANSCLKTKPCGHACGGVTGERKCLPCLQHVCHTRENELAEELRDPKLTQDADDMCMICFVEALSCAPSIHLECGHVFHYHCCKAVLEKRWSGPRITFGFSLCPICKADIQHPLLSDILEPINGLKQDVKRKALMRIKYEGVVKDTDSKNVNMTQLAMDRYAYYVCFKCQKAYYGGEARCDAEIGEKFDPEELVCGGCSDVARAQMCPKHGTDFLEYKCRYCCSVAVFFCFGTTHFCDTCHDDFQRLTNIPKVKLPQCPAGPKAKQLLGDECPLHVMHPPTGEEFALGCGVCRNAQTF

These are yes or no findings as the source states them, for the method shown. In cells and extracts the contact can be indirect. A result given as binding can be weak or reduced; the word gives no strength. Tags and fused reporters may be left off the sequences shown.

This experiment deals with T1, HA-Nmnat (Drosophila nicotinamide mononucleotide adenyltransferase, HA-tagged) (Drosophila) (UniProt Q9VC03).
T1 sequence: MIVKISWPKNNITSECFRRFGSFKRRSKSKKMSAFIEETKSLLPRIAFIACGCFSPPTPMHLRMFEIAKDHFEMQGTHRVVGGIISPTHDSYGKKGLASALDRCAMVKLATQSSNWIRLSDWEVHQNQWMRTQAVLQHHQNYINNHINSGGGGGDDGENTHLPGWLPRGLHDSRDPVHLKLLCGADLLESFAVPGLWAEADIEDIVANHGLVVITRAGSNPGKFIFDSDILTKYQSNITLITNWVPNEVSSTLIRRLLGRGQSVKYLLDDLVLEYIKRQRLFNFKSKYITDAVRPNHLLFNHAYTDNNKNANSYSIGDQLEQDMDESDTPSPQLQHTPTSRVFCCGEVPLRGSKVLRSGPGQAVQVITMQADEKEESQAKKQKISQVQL
The experiment is described as follows: co-IP; S2R+ cell lysates, either co-transfected with pUAST-HA::Nmnat and pUAST-Hiw-ΔRING or mixed lysates from individual transfections; HA-Nmnat immunoprecipitated with mouse anti-HA (HA-7) on Protein G Dynabeads, 30 min at room temperature; lysis buffer 20 mM HEPES pH 7.5, 200 mM KCl, 0.05% Triton X-100, 2.5 mM EDTA, 5 mM DTT, 5% glycerol; Western blot with anti-Hiw. (In general: In western blotting, separated proteins are transferred to a membrane and probed.)

In the case of “Hiw-ΔRING (Highwire mutated for conserved cysteines in the RING domain) (from UniProt Q9NB71) (enzyme)”, the binding result is “binds”.
